In patent publication US7025971:
No constants are given. Whether binding was seen depends on the method and setting. Some entries that bind do so weakly or less than the wild type. For part of these data: Sequences can lack the tags named with a protein.

Chains of the proteins cited; added tags and fusions are not shown. Residues count along the entry.
UniProt P15319, residues 22-239: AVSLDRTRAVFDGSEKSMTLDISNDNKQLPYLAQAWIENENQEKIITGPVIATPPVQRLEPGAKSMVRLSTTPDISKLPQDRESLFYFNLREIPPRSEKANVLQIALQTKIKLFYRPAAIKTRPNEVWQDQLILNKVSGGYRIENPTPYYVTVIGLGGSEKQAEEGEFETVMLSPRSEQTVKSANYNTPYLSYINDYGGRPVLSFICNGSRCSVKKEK

Tests used:
[1] = target: T1, PapG (E. coli) (UniProt P13720); assay: protease protection
T1 sequence: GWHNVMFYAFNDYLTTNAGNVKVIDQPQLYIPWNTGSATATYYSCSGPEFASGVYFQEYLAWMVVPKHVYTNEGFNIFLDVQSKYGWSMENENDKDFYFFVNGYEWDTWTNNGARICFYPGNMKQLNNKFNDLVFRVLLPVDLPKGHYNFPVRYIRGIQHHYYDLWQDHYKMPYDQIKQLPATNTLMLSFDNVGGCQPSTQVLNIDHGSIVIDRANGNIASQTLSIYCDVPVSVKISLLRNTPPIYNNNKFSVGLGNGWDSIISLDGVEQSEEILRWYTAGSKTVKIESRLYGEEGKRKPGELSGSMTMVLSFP

[2] = target: T2, MBP/G1′-19′ (E. coli); assay: ELISA, fusion protein coated on wells, 50 pmol PapD, anti-PapD antiserum
T2 sequence: GKRKPGELSGSMTMVLSFP

[3] = target: T2, MBP/G1′-19′ (E. coli); assay: co-expression, amylose affinity chromatography, anti-PapD western blot

Measured: binding

PapD (wild type) (from UniProt P15319 22-239)
binds: all assays above
